Values from PubChem BioAssay AID504791 (Drosophila RNAi Screening Center, 2011)
In all, the deposit lists about 23,000 reagents; shown is a random part of those that have a named target and a result. In the full data, 199 (0.86%) are marked active. 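Plate-scaled ratios behind the calls are not deposited; printed light signals are raw; many rows marked increased or decreased are still called inactive.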 Entries without a mark were called inactive. Reagents against one gene are numbered here. Names joined by + are all predicted targets of the reagent.

- Screen: 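Factors in Argonaute-based small RNA production and activity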 (primary screen)
- Cell system: Drosophila S2-derived reporter cells
- Knock-down reagent: long dsRNA against Drosophila genes, about 150-250 ng dsRNA per well (siRNA assay); about 80-120 ng (miRNA assay)
- Time to read-out: about 5 days (siRNA assay); about 4 days (miRNA assay)
- Conditions: copper sulfate induction of reporters: 25 µM (siRNA assay); 200 mM stated (miRNA assay), 1-2 days before reading
- Detection: 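Dual luciferase assay: Renilla to firefly signal ratio in each well, scaled to the mean ratio of its plate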
- Direction: siRNA reporter hit score: higher = 3 marks a strong hit with raised ratio; -3 a strong hit with lowered ratio
- Units: stable assay Renilla, run 1 in luminescence; stable assay firefly, run 1 in luminescence
- Rule for the call: 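a well was a first-pass pick when its plate-scaled ratio rose above 1.5 (siRNA assay) or 1.6 (miRNA assay), or dropped below 0.6; a gene counted only if two separate dsRNAs agreed on retest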

predicted target | dsRNA no. | siRNA reporter hit score | miRNA reporter change | stable assay Renilla, run 1 | stable assay firefly, run 1
imd (immune deficiency) | 1 | – | – | 12220 | 5.58e5
CG32027 (retired record) | 1 | – | – | 5902 | 4.45e5
CG2059 | 1 | – | – | 5974 | 3.51e5
Akr1B (Aldo-keto reductase 1B) | 1 | – | – | 9083 | 4.95e5
TwdlM (TweedleM) | 1 | – | – | 5708 | 5.11e5
Jarid2 (Jumonji, AT rich interactive domain 2) | 1 | – | – | 8148 | 4.58e5
RpL15 (Ribosomal protein L15) | 1 | – | – | 7427 | 3.96e5
CCT4 (Chaperonin containing TCP1 subunit 4) | 1 | – | – | 7976 | 3.99e5
CG9483 | 1 | – | – | 7968 | 1.27e6
CG12481 | 1 | – | – | 5223 | 4.52e5
CG11356 | 1 | – | – | 4856 | 4.03e5
Polr2A (RNA polymerase II subunit A) | 1 | – | – | 4200 | 1.60e5
CG10274 | 1 | – | – | 7805 | 4.37e5
CG18508 | 1 | – | – | 6290 | 3.90e5
Lsd-2 (Lipid storage droplet-2) | 1 | – | – | 7954 | 3.83e5
sncRNA:430e + His2A:CG33859 + His2A:CG33817 + 37 more | 1 | -3 (active) | reporter ratio raised past the hit cutoff | 5443 | 5.34e5
CG13511 | 1 | – | – | 6599 | 4.78e5
CG8945 | 1 | – | – | 3316 | 2.21e5
CG8945 | 2 | – | – | 3827 | 2.56e5
Sas10 (Something about silencing 10) | 1 | – | – | 5203 | 4.43e5
Su(P) (Suppressor of ref(2)P sterility) | 1 | – | – | 6767 | 3.95e5
Parp16 (Poly(ADP-ribose) polymerase 16) | 1 | – | – | 5928 | 2.79e5
dac (dachshund) | 1 | – | – | 7200 | 3.96e5
nst (nesthocker) | 1 | – | – | 8176 | 5.42e5
skd (skuld) | 1 | – | – | 5376 | 3.25e5
CG42712 (retired record) | 1 | – | – | 4383 | 4.28e5
yellow-e2 | 1 | – | – | 7038 | 4.06e5
CG14316 | 1 | – | – | 6862 | 3.54e5
Ubi-p63E (Ubiquitin-63E) | 1 | – | – | 8891 | 6.42e5
CG8301 | 1 | – | – | 7146 | 4.36e5
Strip (Striatin interacting protein) | 1 | – | – | 7279 | 2.97e5
CG11159 | 1 | – | – | 4887 | 3.11e5
CG7650 | 1 | – | – | 4887 | 4.33e5
CG11158 | 1 | – | – | 6290 | 5.68e5
if (inflated) | 1 | – | – | 4834 | 4.73e5
CG5139 | 1 | – | – | 6568 | 4.23e5
CG6006 | 1 | – | – | 4475 | 3.19e5
CG6006 | 2 | – | – | 11201 | 5.28e5
Coprox (Coproporphyrinogen oxidase) | 1 | – | – | 11916 | 1.49e5
eIF2D (eukaryotic translation initiation factor 2D) | 1 | – | – | 5574 | 4.38e5
CG17726 | 1 | – | – | 5559 | 4.45e5
Lcp3 (Larval cuticle protein 3) | 1 | – | – | 5748 | 3.02e5
didum (dilute class unconventional myosin) | 1 | – | – | 7398 | 4.01e5
Atg3 (Autophagy-related 3) | 1 | – | – | 5227 | 4.76e5
Atg3 (Autophagy-related 3) | 2 | – | – | 8088 | 4.03e5
SWIP (Strumpellin and WASH-interacting protein) | 1 | – | – | 5032 | 3.70e5
CG14634 | 1 | – | – | 6676 | 4.77e5
AANATL4 (Arylalkylamine N-acetyltransferase-like 4) | 1 | – | – | 6763 | 2.68e5
Obp56b (Odorant-binding protein 56b) | 1 | – | – | 4975 | 2.42e5
Oatp26F (Organic anion transporting polypeptide 26F) | 1 | – | – | 7487 | 4.32e5
Oatp26F (Organic anion transporting polypeptide 26F) | 2 | – | – | 7735 | 6.29e5
Oatp26F (Organic anion transporting polypeptide 26F) | 3 | – | – | 7915 | 4.27e5
CG31313 | 1 | – | – | 4991 | 4.53e5
modSP (modular serine protease) | 1 | – | – | 7136 | 4.14e5
modSP (modular serine protease) | 2 | – | – | 7647 | 3.68e5
modSP (modular serine protease) | 3 | – | – | 9534 | 5.24e5
Svil (Supervillin) | 1 | – | – | 5388 | 4.32e5
Svil (Supervillin) | 2 | – | – | 8898 | 2.56e5
Svil (Supervillin) | 3 | – | – | 6686 | 4.01e5
Svil (Supervillin) | 4 | – | – | 5118 | 2.20e5
Svil (Supervillin) | 5 | – | – | 6984 | 4.25e5
